Measured values published in article PMC3454389, “Mining the Sinorhizobium meliloti Transportome to Develop FRET Biosensors for Sugars, Dicarboxylates and Cyclic Polyols” (PLoS ONE, 2012).

Tested on: SMb20036 FBS-RO version
Test: FBS-RO version of SMb20036 biosensor, FRET ratio change on ligand
Format: binding, Sinorhizobium meliloti
Settings: FBS-RO version (RFP/OFP) of SMb20036
Procedure: Ligand-induced FRET ratio changes of purified FRET biosensor were screened using a LS55 luminescence spectrometer (PerkinElmer Instruments). Excitation (ex.) was at (λ/slit width) 433/10 nm (CFP) or 549/10 nm (OFP). Emission (em.) was measured at 475/10 nm (CFP), 527/10 nm (YFP), 573/10 nm (OFP) and 644/10 nm (RFP). To confirm that Aphrodite and mKate2 were properly folded their fluorescence was individually tested by direct excitation at 510/6 nm and 588/10 nm respectively.
Affinity constants (Kd) of FRET biosensors with specific ligands were established using a monochromator microplate reader (Safire, Tecan, Switzerland; CFP ex.: (λ\bandwidth) 433/12 nm, em.: 475/12 nm; YFP em.: 527/12 nm. OFP ex.: 533/12 nm, em.: 563/12 nm; RFP em.: 615/12 nm). Proteins were diluted to give relative fluorescence units (RFU) in the detection range of 30,000 to 50,000 RFU at a gain of 90 to 100, and then were added to a dilution series (10^−3 to 10^−11 M) of ligand in Tris-HCl (pH 8.5, 50 mM). The change in relative emission intensities at 527/477 nm (YFP/CFP) or 615/563 nm (RFP/OFP) was used to determine Kd by fitting the titration curves to a single-site-binding isotherm: [drawing 1] with: R, ratio; Rapo, ratio without ligand; Rsat, ratio at saturation of ligand; n, number of equal binding sites; [L], ligand concentration. […]

O=C(O)C1=C[C@@H](O)[C@@H](O)[C@H](O)C1 [shikimic acid]
change in FRET ratio on binding ligand: no change in FRET ratio
